Earlier results, collected in publication PMC8646516 (CPT: Pharmacometrics & Systems Pharmacology, 2021).

Tested on: endothelial barrier
Settings: cited from earlier work

Compound: Cc1ccc(NC(=O)c2ccc(CN3CCN(C)CC3)cc2)cc1Nc1nccc(-c2cccnc2)n1 [imatinib]
- IC50 for endothelial barrier protection, total concentration: 1.9 µg/mL
